Reference: patent publication US3992530A, “[D-2-(1,4-Cyclohexadienyl)gly]^6 -des-gly^10 -lrh nonapeptide amides” (American Home Products Corporation, priority 1975, dated 1976)
Not every detail of the peptide structures is certain; ends, links or a residue may be inferred.

Test system: pregnancy (uterine implantation sites and fetuses) in female Sprague-Dawley rats
Assay: Post-coital anti-gravidity (claudogenic/interceptive) test in mated female rats
Type: in vivo
Conditions: 200 micrograms per rat per day s.c. in corn oil

## CCNC(=O)[C@@H]1CCCN1C(=O)[C@H](CCCNC(=N)N)NC(=O)[C@H](CC(C)C)NC(=O)[C@H](NC(=O)[C@H](Cc1ccc(O)cc1)NC(=O)[C@H](CO)NC(=O)[C@H](Cc1c[nH]c2ccccc12)NC(=O)[C@H](Cc1c[nH]cn1)NC(=O)[C@@H]1CCC(=O)N1)C1=CCC=CC1 [nonapeptide ethylamide, L-pyroglutamyl-L-histidyl-L-tryptophyl-L-seryl-L-tyrosyl-D-2-(1,4-cyclohexadienyl)glycyl-L-leucyl-L-arginyl-L-prolinethylamide]
Days 1-7 of pregnancy, autopsy day 14, six rat sample
  effectiveness of treatment in preventing pregnancy (absence of uterine implantation sites and fetuses): 100 per cent
Days 7-12 of pregnancy, autopsy day 18, six rat sample
  effectiveness of treatment in preventing pregnancy (absence of uterine implantation sites and fetuses): 100 per cent
